The list shows a part of the results. Shown are side measurements of this screen, not its main read-out; they come without a call. Compounds called inactive in the main read-out are mostly missing here. Potencies come from curve fits of mixed quality, noted in brackets.
Test: qHTS Assay for Lipid Storage Modulators in Drosophila S3 Cells;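 as to cell number change: cells counted by Cell Tracker Red CMTPX staining in the red channel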
Conditions: BODIPY lipid droplet fluorescence, 18-24 h; for cell number change: measured here: cell count max response, cells fed with added oleic acid
Method in brief: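 Laser-scanning cytometry quantifies lipid droplet accumulation (500–530 nm total intensity; droplet/cell object ratio) in oleic acid-fed (400 uM added) Drosophila S3 cells treated with a concentration series. 20 uM Triacsin C defined 100% inhibition.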

[1] = measured here: lipid fluorescence (Fed channel) AC50, cells fed with added oleic acid
[2] = measured here: cell number channel AC50, cells fed with added oleic acid

Row | Structure (SMILES) | cell number change | AC50 [1] | AC50 [2]
1 | COc1ccc(NC2c3ccccc3C(=O)N2Cc2ccc3c(c2)OCO3)cc1 (stereo not drawn) | 11.5% | 0.517 µM [rising, full curve, poor fit] | 
2 | CC1(c2ccc(Cl)cc2)NC(=O)N(CC(=O)c2ccc3c(c2)OCO3)C1=O (stereo not drawn) | -41.7% | 3.26 µM [falling, partial curve] | 2.91 µM [falling, partial curve]
3 | Cc1ccc(S(=O)(=O)c2cnc(-c3ccccc3)nc2N2CCCCC2)cc1 | -20% | 2.31 µM [rising, partial curve] | 6.51 µM [falling, single point]
4 | CC(C)c1c(O)nc(SCC(=O)N2CCOCC2)[nH]c1=O | -116% | 0.326 µM [falling, full curve] | 10.3 µM [falling, partial curve, poor fit]
5 | O=C(c1ccccc1)N1CCN(c2ccc(NCc3ccc4c(c3)OCO4)cc2)CC1 |  | 6.51 µM [rising, single point] | 2.31 µM [rising, partial curve, poor fit]
6 | O=S(=O)(NCC1CCCO1)c1ccccc1F (stereo not drawn) | 20.7% | 6.51 µM [rising, single point] | 
7 | O=C(/C=C/c1ccc(F)cc1)N1CCCc2ccccc21 | -14.6% | 29.1 µM [falling, single point] | 
8 | COc1ccc(C(O)P(=O)(OC2CCCCC2)c2ccc(N(C)C)cc2)cc1OC (stereo not drawn) | -1.35% | 0.0517 µM [rising, full curve] | 
9 | O=C(NCC(=O)N(c1ccc(F)cc1)C(C(=O)NCC1CCCO1)c1ccccc1)c1ccco1 (stereo not drawn) | 0.639% | 29.1 µM [rising, single point] | 
10 | Clc1ccc(CNC23CN4CN(CN(C4)C2)C3)c(Cl)c1 | -44.9% | 1.3 µM [falling, full curve] | 4.11 µM [falling, partial curve]
11 | CSc1ncc(Cl)c(C(=O)Nc2ccc(NC(C)=O)cc2)n1 | -10.6% |  | 
12 | CCOc1ccc(N2CC(NC(=O)c3cccc4ccccc34)CC2=O)cc1 (stereo not drawn) | 12.9% | 7.31 µM [rising, single point] | 
13 | CS(=O)(=O)Nc1ccccc1C(=O)N1CCOCC1 | -34% | 1.46 µM [falling, full curve] | 0.184 µM [falling, full curve]
14 | N#Cc1ccc(COC(=O)c2cccnc2Cl)cc1 | -21.8% |  | 
15 | COc1ccc(CCNC(=O)CSc2nc(O)cc(=O)[nH]2)cc1OC | -11.9% | 0.82 µM [falling, full curve, poor fit] | 
16 | O=C(Nc1ccc(F)cc1)Nc1ccc(N2CCCC2)c(S(=O)(=O)Nc2ccccc2Cl)c1 | -82.4% | 4.11 µM [falling, full curve, poor fit] | 29.1 µM [falling, single point]
17 | COc1ccccc1Nc1nnc(SCC(=O)Nc2cc(C)on2)s1 | 13.6% | 20.6 µM [falling, partial curve, poor fit] | 
18 | Cc1ccc2c(c1)N(CC(=O)NCc1ccco1)C(=O)C(C(C)C)O2 (stereo not drawn) | -18.8% | 10.3 µM [falling, partial curve, poor fit] | 
19 | COc1ccccc1N(C)S(=O)(=O)c1ccc(C(=O)OCC(=O)c2c[nH]c3ccccc23)cc1 | -4.74% | 1.84 µM [rising, partial curve] | 0.731 µM [rising, single point]
20 | COc1ccc(-c2ccc(-c3noc(-c4ccco4)n3)c(OC)n2)cc1 | -48.3% | 29.1 µM [falling, single point] | 29.1 µM [falling, single point]
21 | C=CCOC(=O)/C(=C\c1ccccc1)NC(=O)c1ccc(C)cc1 | 40.8% |  | 
22 | Cc1cc(=O)oc2cc(OCC(=O)Nc3nccs3)ccc12 | 18.3% |  | 
23 | CCS(=O)(=O)N1CCN(CC(=O)NC2CCCCC2)CC1 | -9.26% | 0.517 µM [falling, full curve, poor fit] | 
24 | COc1cc(CNn2c(C)n[nH]c2=S)cc(Br)c1OCc1ccc(F)cc1 | -30.8% | 1.3 µM [rising, partial curve, poor fit] | 16.4 µM [falling, single point]
25 | Cc1ccc(C(=O)/C=C/C(=O)c2ccc(C)cc2)cc1 | -22.2% | 29.1 µM [falling, single point] | 
26 | O=C(Nc1nccs1)c1ccc2ccccc2n1 | 43.4% |  | 29.1 µM [rising, single point]
27 | COc1ccc(NC(=S)NC(=O)C2CCCCC2)cc1 | 34.1% | 29.1 µM [rising, single point] | 29.1 µM [rising, single point]
28 | COCCNC(=O)Cn1cnc2sc(C)c(S(=O)(=O)N3CCC(C)CC3)c2c1=O | -1.7% | 0.517 µM [falling, full curve, poor fit] | 

Of the compounds above, these have a furan ring, fused or not.
Row | Structure (SMILES) | cell number change | AC50 [1] | AC50 [2]
9 | O=C(NCC(=O)N(c1ccc(F)cc1)C(C(=O)NCC1CCCO1)c1ccccc1)c1ccco1 (stereo not drawn) | 0.639% | 29.1 µM [rising, single point] | 
18 | Cc1ccc2c(c1)N(CC(=O)NCc1ccco1)C(=O)C(C(C)C)O2 (stereo not drawn) | -18.8% | 10.3 µM [falling, partial curve, poor fit] | 
20 | COc1ccc(-c2ccc(-c3noc(-c4ccco4)n3)c(OC)n2)cc1 | -48.3% | 29.1 µM [falling, single point] | 29.1 µM [falling, single point]

Remaining list, next part

Row | Structure (SMILES) | cell number change | AC50 [1] | AC50 [2]
29 | CC(C)CN(CC(C)C)S(=O)(=O)N1CCC(C(=O)N2CCc3ccccc3C2)CC1 | -21.9% | 0.651 µM [falling, full curve, poor fit] | 0.517 µM [falling, full curve, poor fit]
30 | Nc1nnc(CC(=O)N/N=C/c2cc([N+](=O)[O-])cc(Br)c2O)s1 | -3.68% | 29.1 µM [falling, single point] | 
31 | Cc1ccc(-c2cc3ccccc3nc2N2CCOCC2)cc1 | 8.33% | 0.116 µM [falling, partial curve, poor fit] | 
32 | COc1ccc(CNC(=O)CN2C(=O)NC(Cc3ccccc3)(c3ccccc3)C2=O)cc1OC (stereo not drawn) | -20.1% | 6.51 µM [falling, partial curve] | 
33 | Cc1ccc2nsnc2c1NC(=O)COc1ccccc1F | 130% |  | 0.58 µM [rising, single point]
34 | COc1ccc(OC)c(NC(=O)CCN2CCCC(C)C2)c1 (stereo not drawn) | -25.7% | 0.116 µM [rising, full curve, poor fit] | 2.06 µM [falling, single point]
35 | O=C(CCCn1c(=O)c2ccccc2n(Cc2cccc(F)c2)c1=O)NC1CCN(Cc2ccccc2)CC1 | -23.2% | 29.1 µM [falling, single point] | 
36 | N#Cc1ccc(CN2CCN(C(=O)c3cc(Cl)c4c(c3)OCCO4)CC2)cc1 | -0.908% | 0.259 µM [rising, full curve] | 
37 | COc1ccccc1CCNC(=O)C(=O)NCC1OCCN1S(=O)(=O)c1ccc([N+](=O)[O-])cc1 (stereo not drawn) | 5.77% | 1.84 µM [rising, full curve] | 2.31 µM [rising, single point]
38 | CCOc1ccc(S(=O)(=O)Nc2cccc(C(=O)NCC3CCCO3)c2)cc1 (stereo not drawn) | -36.4% | 20.6 µM [falling, single point] | 20.6 µM [falling, single point]
39 | CCCCc1n[nH]c2c1/C(=N/O)CC(c1ccccc1)C2 (stereo not drawn) | -18.7% | 29.1 µM [falling, single point] | 
40 | Cc1ccc(NC(=O)CCS(=O)(=O)c2ccccc2)cc1S(=O)(=O)N1CCOCC1 | 32.1% |  | 9.2 µM [rising, single point]
41 | COc1ccc(C(=O)N=C2SC3CS(=O)(=O)CC3N2c2ccc(N(C)C)cc2)cc1OC (stereo not drawn) | 3.4% | 29.1 µM [rising, partial curve, poor fit] | 
42 | CCSc1ccccc1C(=O)N1CCCC1 | -46% |  | 0.231 µM [falling, full curve]
43 | Cc1cc(C)c2sc(N(CCCN(C)C)C(=O)c3ccc(Br)s3)nc2c1 | 11.4% |  | 
44 | Cc1cccc(OCCCC(=O)Nc2nc3ccccc3[nH]2)c1 | 27.4% | 6.51 µM [rising, partial curve, poor fit] | 2.59 µM [rising, single point]
45 | O=C1Nc2ccccc2C1=Nc1ccc(S(=O)(=O)Nc2nccs2)cc1 | 172% |  | 8.2 µM [rising, partial curve]
46 | COc1ccc(OC(=O)c2cccc(S(=O)(=O)N3CC(C)OC(C)C3)c2)cc1 (stereo not drawn) | -38.7% |  | 8.2 µM [falling, partial curve]
47 | O=C(NCC(=O)N(c1cccc(F)c1)C(C(=O)NC1CCCC1)c1ccco1)c1ccco1 (stereo not drawn) |  |  | 4.61 µM [rising, single point]
48 | CCOC(=O)O[C@]1(C(=O)COC(=O)CC)CC[C@H]2[C@@H]3CCC4=CC(=O)C=C[C@]4(C)[C@H]3[C@@H](O)C[C@@]21C | 11.3% | 0.517 µM [rising, full curve, poor fit] | 
49 | COc1cccc(CNC(=O)COC(=O)CN2C(=O)NC3(CCCCC3C)C2=O)c1 (stereo not drawn) | 9.16% | 3.66 µM [rising, full curve] | 
50 | CN(C)C=NC(=O)c1cn(-c2ccc(F)cc2)c(=O)c2ccccc12 | -9.23% |  | 6.51 µM [falling, single point]
51 | O=C(NCc1cccnc1)c1ccc(Br)s1 | 28.3% | 29.1 µM [rising, single point] | 
52 | CCOC(=O)C1(Cc2ccc(Cl)cc2)CCN(C(=O)c2cnc(C)cn2)CC1 | 1.94% | 0.366 µM [rising, full curve, poor fit] | 
53 | Cc1cccc(N(CC(=O)NCc2ccccc2)C(=O)CCC(=O)Nc2nccs2)c1 | 956% |  | 29.1 µM [rising, single point]
54 | CCOc1ccc(NS(=O)(=O)c2ccc(OCC(=O)NCc3ccncc3)cc2)cc1 | 20.6% | 29.1 µM [rising, single point] | 
55 | Cc1ccccc1NC(=O)c1cccc(C(=O)Nc2ccccc2C)n1 |  | 29.1 µM [falling, single point] | 
